{
  "source": "paper PMC3422339",
  "assay_in_all_cases": "agarose EMSA",
  "key": {"[1]": {"target": "T1, LEC1/AtNF-YB9 HFD (Arabidopsis thaliana) (UniProt Q9SFD8)", "T1 sequence (looked up)": "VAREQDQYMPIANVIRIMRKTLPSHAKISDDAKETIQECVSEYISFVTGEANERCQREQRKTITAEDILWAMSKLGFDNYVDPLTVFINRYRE", "conditions": "AtNF-YB9 alone, 32P EMSA: 20 mM Hepes pH 7.9, 50 mM NaCl, 5% glycerol, 5 mM MgCl2, 5 mM b-ME, 20 C, Cy5 agarose EMSA: 20 nM DNA, 20 mM Tris pH 7.5, 50 mM NaCl, 0.5 mM EDTA, recombinant protein, residues 56-148, protein details: N-terminal 6His, label: 5'-Cy5"}, "[2]": {"test_system": "mouse NF-YA minimal domain + LEC1/AtNF-YB9 HFD + AtNF-YC3 HFD", "conditions": "shifted, lower affinity than mouse NF-Y, 32P EMSA: 20 mM Hepes pH 7.9, 50 mM NaCl, 5% glycerol, 5 mM MgCl2, 5 mM b-ME, 20 C, Cy5 agarose EMSA: 20 nM DNA, 20 mM Tris pH 7.5, 50 mM NaCl, 0.5 mM EDTA, recombinant protein, label: 5'-Cy5"}, "[3]": {"test_system": "mouse NF-YA minimal domain + L1L/AtNF-YB6 HFD + AtNF-YC3 HFD", "conditions": "shifted, lower affinity than mouse NF-Y, 32P EMSA: 20 mM Hepes pH 7.9, 50 mM NaCl, 5% glycerol, 5 mM MgCl2, 5 mM b-ME, 20 C, Cy5 agarose EMSA: 20 nM DNA, 20 mM Tris pH 7.5, 50 mM NaCl, 0.5 mM EDTA, recombinant protein, label: 5'-Cy5"}},
  "note": "For part of these data: A negative result means that nothing was seen under these conditions. For part of these data: Protein sequences can lack the tags named with them. For part of these data: Weaker means in comparison with the reference protein, sequence or condition of that experiment.",
  "data": [
    {"sequence": "CTTCTGAGCCAATCACCGAGCTCGATGAGGC (double strand) [HSP70 CCAAT 31 bp probe]", "values": [
      {"measurement": "binding result", "setting": "[1]", "value": "no binding"},
      {"measurement": "binding result", "setting": "[2]", "value": "binds more weakly"},
      {"measurement": "binding result", "setting": "[3]", "value": "binds more weakly"}
    ]}
  ]
}
